In publication PMC4057170 one finds binding data, which are given here for eight molecules.

By UniProt entry, the sequences of proteins in these tests, tags left out.
UniProt Q9UBB5: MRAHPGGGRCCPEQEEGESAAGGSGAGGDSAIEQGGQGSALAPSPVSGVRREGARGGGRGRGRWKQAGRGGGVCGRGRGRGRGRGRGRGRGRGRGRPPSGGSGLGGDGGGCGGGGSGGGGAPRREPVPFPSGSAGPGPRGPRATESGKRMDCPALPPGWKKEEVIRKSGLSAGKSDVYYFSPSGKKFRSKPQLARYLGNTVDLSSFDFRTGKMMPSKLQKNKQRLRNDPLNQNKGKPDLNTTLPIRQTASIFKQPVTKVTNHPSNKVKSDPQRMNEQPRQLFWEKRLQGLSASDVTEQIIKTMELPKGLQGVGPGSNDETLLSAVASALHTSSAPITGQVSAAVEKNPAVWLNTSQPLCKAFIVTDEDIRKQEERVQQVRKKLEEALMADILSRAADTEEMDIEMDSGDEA

Sequences and labels used below:
B1: BEN domain-containing protein 3 (protein, UniProt Q5T5X7 1-828)
chain: MNSTEFTEDVEEVLKSITVKVETEAEDAALDCSVNSRTSEKHSVDSVLTALQDSSKRKQLVSDGLLDSVPGVKRRRLIPEALLAGMRNRENSSPCQGNGEQAGRGRSLGNVWPGEEEPCNDATTPSYKKPLYGISHKIMEKKNPPSGDLLNVYELFEKANASNSPSSLRLLNEPQKRDCGSTGAGTDNDPNIYFLIQKMFYMLNTLTSNMSQLHSKVDLLSLEVSRIKKQVSPTEMVAKFQPPPEYQLTAAELKQIVDQSLSGGDLACRLLVQLFPELFSDVDFSRGCSACGFAAKRKLESLHLQLIRNYVEVYYPSVKDTAVWQAECLPQLNDFFSRFWAQREMEDSQPSGQVASFFEAEQVDPGHFLDNKDQEEALSLDRSSTIASDHVVDTQDLTEFLDEASSPGEFAVFLLHRLFPELFDHRKLGEQYSCYGDGGKQELDPQRLQIIRNYTEIYFPDMQEEEAWLQQCAQRINDELEGLGLDAGSEGDPPRDDCYDSSSLPDDISVVKVEDSFEGERPGRRSKKIWLVPIDFDKLEIPQPDFEVPGADCLLSKEQLRSIYESSLSIGNFASRLLVHLFPELFTHENLRKQYNCSGSLGKKQLDPSRIKLIRHYVQLLYPRAKNDRVWTLEFVGKLDERCRRRDTEQRRSYQQQRKVHVPGPECRDLTSYAINPERFREEFEGPPLPPERSSKDFCKIPLDELVVPSPDFPVPSPYLLSDKEVREIVQQSLSVGNFAARLLVRLFPELFTAENLRLQYNHSGACNKKQLDPTRLRLIRHYVEAVYPVEKMEEVWHYECIPSIDERCRRPNRKKCDILKKAKKVEK
B2: Zinc finger protein 512B (protein, UniProt Q96KM6 1-892)
chain: MTDPFCVGGRRLPGSSKSGPGKDGSRKEVRLPMLHDPPKMGMPVVRGGQTVPGQAPLCFDPGSPASDKTEGKKKGRPKAENQALRDIPLSLMNDWKDEFKAHSRVKCPNSGCWLEFPSIYGLKYHYQRCQGGAISDRLAFPCPFCEAAFTSKTQLEKHRIWNHMDRPLPASKPGPISRPVTISRPVGVSKPIGVSKPVTIGKPVGVSKPIGISKPVSVGRPMPVTKAIPVTRPVPVTKPVTVSRPMPVTKAMPVTKPITVTKSVPVTKPVPVTKPITVTKLVTVTKPVPVTKPVTVSRPIVVSKPVTVSRPIAISRHTPPCKMVLLTRSENKAPRATGRNSGKKRAADSLDTCPIPPKQARPENGEYGPSSMGQSSAFQLSADTSSGSLSPGSRPSGGMEALKAAGPASPPEEDPERTKHRRKQKTPKKFTGEQPSISGTFGLKGLVKAEDKARVHRSKKQEGPGPEDARKKVPAAPITVSKEAPAPVAHPAPGGPEEQWQRAIHERGEAVCPTCNVVTRKTLVGLKKHMEVCQKLQDALKCQHCRKQFKSKAGLNYHTMAEHSAKPSDAEASEGGEQEERERLRKVLKQMGRLRCPQEGCGAAFSSLMGYQYHQRRCGKPPCEVDSPSFPCTHCGKTYRSKAGHDYHVRSEHTAPPPEEPTDKSPEAEDPLGVERTPSGRVRRTSAQVAVFHLQEIAEDELARDWTKRRMKDDLVPETARLNYTRPGLPTLNPQLLEAWKNEVKEKGHVNCPNDCCEAIYSSVSGLKAHLASCSKGAHLAGKYRCLLCPKEFSSESGVKYHILKTHAENWFRTSADPPPKHRSQDSLVPKKEKKKNLAGGKKRGRKPKERTPEEPVAKLPPRRDDWPPGCRDKGARGSTGRKVGVSKAPEK
B3: Zinc finger and BTB domain-containing protein 10 (protein, UniProt Q96DT7 1-871)
chain: MSFSEMNRRTLAFRGGGLVTASGGGSTNNNAGGEASAWPPQPQPRQPPPPAPPALQPPNGRGADEEVELEGLEPQDLEASAGPAAGAAEEAKELLLPQDAGGPTSLGGGAGGPLLAERNRRTLAFRGGGGGGLGNNGSSRGRPETSVWPLRHFNGRGPATVDLELDALEGKELMQDGASLSDSTEDEEEGASLGDGSGAEGGSCSSSRRSGGDGGDEVEGSGVGAGEGETVQHFPLARPKSLMQKLQCSFQTSWLKDFPWLRYSKDTGLMSCGWCQKTPADGGSVDLPPVGHDELSRGTRNYKKTLLLRHHVSTEHKLHEANAQESEIPSEEGYCDFNSRPNENSYCYQLLRQLNEQRKKGILCDVSIVVSGKIFKAHKNILVAGSRFFKTLYCFSNKESPNQNNTTHLDIAAVQGFSVILDFLYSGNLVLTSQNAIEVMTVASYLQMSEVVQTCRNFIKDALNISIKSEAPESVVVDYNNRKPVNRDGLSSSRDQKIASFWATRNLTNLASNVKIENDGCNVDEGQIENYQMNDSSWVQDGSPEMAENESEGQTKVFIWNNMGSQGIQETGKTRRKNQTTKRFIYNIPPNNETNLEDCSVMQPPVAYPEENTLLIKEEPDLDGALLSGPDGDRNVNANLLAEAGTSQDGGDAGTSHDFKYGLMPGPSNDFKYGLIPGTSNDFKYGLIPGASNDFKYGLLPESWPKQETWENGESSLIMNKLKCPHCSYVAKYRRTLKRHLLIHTGVRSFSCDICGKLFTRREHVKRHSLVHKKDKKYKCMVCKKIFMLAASVGIRHGSRRYGVCVDCADKSQPGGQEGVDQGQDTEFPRDEEYEENEVGEADEELVDDGEDQNDPSRWDESGEVCMSLDD
B4: Zinc finger transcription factor Trps1 (protein, UniProt Q9UHF7 1-1281)
chain: MVRKKNPPLRNVASEGEGQILEPIGTESKVSGKNKEFSADQMSENTDQSDAAELNHKEEHSLHVQDPSSSSKKDLKSAVLSEKAGFNYESPSKGGNFPSFPHDEVTDRNMLAFSSPAAGGVCEPLKSPQRAEADDPQDMACTPSGDSLETKEDQKMSPKATEETGQAQSGQANCQGLSPVSVASKNPQVPSDGGVRLNKSKTDLLVNDNPDPAPLSPELQDFKCNICGYGYYGNDPTDLIKHFRKYHLGLHNRTRQDAELDSKILALHNMVQFSHSKDFQKVNRSVFSGVLQDINSSRPVLLNGTYDVQVTSGGTFIGIGRKTPDCQGNTKYFRCKFCNFTYMGNSSTELEQHFLQTHPNKIKASLPSSEVAKPSEKNSNKSIPALQSSDSGDLGKWQDKITVKAGDDTPVGYSVPIKPLDSSRQNGTEATSYYWCKFCSFSCESSSSLKLLEHYGKQHGAVQSGGLNPELNDKLSRGSVINQNDLAKSSEGETMTKTDKSSSGAKKKDFSSKGAEDNMVTSYNCQFCDFRYSKSHGPDVIVVGPLLRHYQQLHNIHKCTIKHCPFCPRGLCSPEKHLGEITYPFACRKSNCSHCALLLLHLSPGAAGSSRVKHQCHQCSFTTPDVDVLLFHYESVHESQASDVKQEANHLQGSDGQQSVKESKEHSCTKCDFITQVEEEISRHYRRAHSCYKCRQCSFTAADTQSLLEHFNTVHCQEQDITTANGEEDGHAISTIKEEPKIDFRVYNLLTPDSKMGEPVSESVVKREKLEEKDGLKEKVWTESSSDDLRNVTWRGADILRGSPSYTQASLGLLTPVSGTQEQTKTLRDSPNVEAAHLARPIYGLAVETKGFLQGAPAGGEKSGALPQQYPASGENKSKDESQSLLRRRRGSGVFCANCLTTKTSLWRKNANGGYVCNACGLYQKLHSTPRPLNIIKQNNGEQIIRRRTRKRLNPEALQAEQLNKQQRGSNEEQVNGSPLERRSEDHLTESHQREIPLPSLSKYEAQGSLTKSHSAQQPVLVSQTLDIHKRMQPLHIQIKSPQESTGDPGNSSSVSEGKGSSERGSPIEKYMRPAKHPNYSPPGSPIEKYQYPLFGLPFVHNDFQSEADWLRFWSKYKLSVPGNPHYLSHVPGLPNPCQNYVPYPTFNLPPHFSAVGSDNDIPLDLAIKHSRPGPTANGASKEKTKAPPNVKNEGPLNVVKTEKVDRSTQDELSTKCVHCGIVFLDEVMYALHMSCHGDSGPFQCSICQHLCTDKYDFTTHIQRGLHRNNAQVEKNGKPKE
B5: PiggyBac transposable element-derived protein 3 (protein, UniProt Q8N328 1-593)
chain: MPRTLSLHEITDLLETDDSIEASAIVIQPPENATAPVSDEESGDEEGGTINNLPGSLLHTAAYLIQDGSDAESDSDDPSYAPKDDSPDEVPSTFTVQQPPPSRRRKMTKILCKWKKADLTVQPVAGRVTAPPNDFFTVMRTPTEILELFLDDEVIELIVKYSNLYACSKGVHLGLTSSEFKCFLGIIFLSGYVSVPRRRMFWEQRTDVHNVLVSAAMRRDRFETIFSNLHVADNANLDPVDKFSKLRPLISKLNERCMKFVPNETYFSFDEFMVPYFGRHGCKQFIRGKPIRFGYKFWCGATCLGYICWFQPYQGKNPNTKHEEYGVGASLVLQFSEALTEAHPGQYHFVFNNFFTSIALLDKLSSMGHQATGTVRKDHIDRVPLESDVALKKKERGTFDYRIDGKGNIVCRWNDNSVVTVASSGAGIHPLCLVSRYSQKLKKKIQVQQPNMIKVYNQFMGGVDRADENIDKYRASIRGKKWYSSPLLFCFELVLQNAWQLHKTYDEKPVDFLEFRRRVVCHYLETHGHPPEPGQKGRPQKRNIDSRYDGINHVIVKQGKQTRCAECHKNTTFRCEKCDVALHVKCSVEYHTE
B6: Cyclin-dependent kinase 2-associated protein 1, O14519 1-115 (protein)
chain: MSYKPNLAAHMPAAALNAAGSVHSPSTSMATSSQYRQLLSDYGPPSLGYTQGTGNSQVPQSKYAELLAIIEELGKEIRPTYAGSKSAMERLKRGIIHARGLVRECLAETERNARS
B7: RBAP46 (RBBP7), Q16576 1-425 (protein)
chain: MASKEMFEDTVEERVINEEYKIWKKNTPFLYDLVMTHALQWPSLTVQWLPEVTKPEGKDYALHWLVLGTHTSDEQNHLVVARVHIPNDDAQFDASHCDSDKGEFGGFGSVTGKIECEIKINHEGEVNRARYMPQNPHIIATKTPSSDVLVFDYTKHPAKPDPSGECNPDLRLRGHQKEGYGLSWNSNLSGHLLSASDDHTVCLWDINAGPKEGKIVDAKAIFTGHSAVVEDVAWHLLHESLFGSVADDQKLMIWDTRSNTTSKPSHLVDAHTAEVNCLSFNPYSEFILATGSADKTVALWDLRNLKLKLHTFESHKDEIFQVHWSPHNETILASSGTDRRLNVWDLSKIGEEQSAEDAEDGPPELLFIHGGHTAKISDFSWNPNEPWVICSVSEDNIMQIWQMAENIYNDEESDVTTSELEGQGS
B8: Zinc finger protein 219, Q9P2Y4 1-722 (protein)
chain: MEGSRPRAPSGHLAPSPPAFDGELDLQRYSNGPAVSAGSLGMGAVSWSESRAGERRFPCPVCGKRFRFNSILALHLRAHPGAQAFQCPHCGHRAAQRALLRSHLRTHQPERPRSPAARLLLELEERALLREARLGRARSSGGMQATPATEGLARPQAPSSSAFRCPYCKGKFRTSAERERHLHILHRPWKCGLCSFGSSQEEELLHHSLTAHGAPERPLAATSAAPPPQPQPQPPPQPEPRSVPQPEPEPEPEREATPTPAPAAPEEPPAPPEFRCQVCGQSFTQSWFLKGHMRKHKASFDHACPVCGRCFKEPWFLKNHMKVHASKLGPLRAPGPASGPARAPQPPDLGLLAYEPLGPALLLAPAPTPAERREPPSLLGYLSLRAGEGRPNGEGAEPGPGRSFGGFRPLSSALPARARRHRAEEPEEEEEVVEAEEETWARGRSLGSLASLHPRPGEGPGHSASAAGAQARSTATQEENGLLVGGTRPEGGRGATGKDCPFCGKSFRSAHHLKVHLRVHTGERPYKCPHCDYAGTQSGSLKYHLQRHHREQRSGAGPGPPPEPPPPSQRGSAPQSGAKPSPQPATWVEGASSPRPPSSGAGPGSRRKPASPGRTLRNGRGGEAEPLDLSLRAGPGGEAGPGGALHRCLFCPFATGAPELMALHLQVHHSRRARGRRPPQADASPPYARVPSGETPPSPSQEGEEGSGLSRPGEAGLGGQER

No constants are given. Whether binding was seen depends on the method and setting. In cells and extracts the contact can be indirect. These calls come from enrichment with a bait or labelling near it, and not all partners need be listed. For some assays here: No binding means not detected with the bait.

For the first assay, the target named is TTE-MBD2 (TY1-TY1-ER tagged human full length MBD2) (human) (UniProt Q9UBB5). As to the kind of experiment: affinity purification with mass spectrometry; Ty1 immunoprecipitation (5 µg BB2 antibody, protein A/G plus-agarose beads) from 500 µg nuclear proteins of TTE-MBD2 MCF-7, over night at 4°C, triplicates; on-bead trypsin digestion, label-free quantitation (MaxQuant); WT MCF-7 as control.
Conditions: not given
For B1, the binding entry is reported as “binds”.
Turning to B2, the binding entry is “binds”.
On the same count and under the same terms, to B3 belongs “binds”.
Take B4: the binding result is listed as “binds”.
On the same count and under the same terms, to B5 belongs “binds”.

The next assay deals with TTE-MBD2 (TY1-TY1-ER tagged human full length MBD2) (human), Q9UBB5. The assay is described as above. The conditions noted are these: remark: other sources report otherwise.
Turning to B6, the binding result was “binds”.
Regarding B7, the binding entry was “no binding”.
On to B8, for which the binding result is reported as “binds”.
